This is one part of the list.
B1: il10ra_site1_normal_mot_HHH_b2_07579_000000275_0001_1_19_H_._HHH_b2_07760_0001_0000200028_0000001_0_af2pred_0001 (protein)
chain: SSSSDEIEELLRLIRKAAELLRKGDPEKAREVLEQAEELAEELGNRLTLHALKSLQHNVDSSSSS
B2: il10ra_site1_normal_mot_HHH_b2_08186_000000021_0001_43_56_H_._HHH_b1_05775_af2_0002_0000700031_0000002_0 (protein)
chain: SSSSEEERVEELQEEIKELEEEGDLKRVLRLLQEILRLIYRLGDAELLRRLWELLKELERRQSSS
B3: il10ra_site1_sap_15_mot_HHH_b2_07540_000000184_0001_1_15_H_._466e3adc427fd7647ce2a7b00f41f3a6_0001_af2_0001_0000100002_0000002_0_0001 (protein)
chain: SSSSDAEELAEEVIEELKELRERGDHDEVYRLVKEAIEQLIELNNQEALRLLMEFVARLFSSSSS
B4: il10ra_site1_sap_20_mot_HHH_b1_03314_af2_000000278_0001_42_55_H_._HHH_b2_01043_0001_0000400013_0000001_0_0001_af2pred_0001 (protein)
chain: SSSSDTEELREEVEELLRKLEELGDEEAVRQLRILLKAAEQNKNPRSLEAAARLAEDALKLSSSS
B5: il10ra_site1_normal_mot_HHH_b1_05937_af2_000000262_0001_20_37_H_._HHH_b2_05818_af2_0001_0000300009_0000001_0 (protein)
chain: SSSSDEEEVEERVEELLERAEKIEDLHEVLRLLIEALRLAFEARDDELLQLIWEVAEELRSSSSS
B6: il10ra_site1_sap_17_mot_HHH_b2_02933_000000199_0001_1_19_H_._HHH_b2_04719_af2_0001_0000800038_0000001_0_0001_af2pred_0001 (protein)
chain: SSSSSDEEEVEKRIEELLEEAKHIPDRHRAAYALIRAYALANEVRSEELRRLVEEVAKRLSSSSS
B7: il10ra_site1_sap_20_mot_HHH_b1_05189_000000097_0001_43_57_H_._HHH_b2_08174_af2_0001_0000100002_0000001_0_0001 (protein)
chain: SSSSSSEEEEVRREVEELLEEAKEVDREEAMKLLLRAIRLAYQVSDPELLQLIWEVLRRNSSSSS
B8: il10ra_site1_normal_mot_15066a8f41c19a04ca9a9f0a9d91fe83_0001_000000267_0001_1_12_H_._230fcc1677eb0c512f32732c1a7e1c83_0001_0001_0000200007_0000001_0 (protein)
chain: SQNEEALKYLIEQNSPIIKFTIEALERAVELGDPSARELVEELLELAKELGNEEIEELLEEVLRR
B9: il10ra_site1_sap_19_mot_HHH_eva_0271_af2_000000157_0001_1_17_H_._HHH_b1_07722_0001_0000200013_0000001_0_0001 (protein)
chain: SSSSDDEVSQEIYELIQKAAELANEGDEEEAEKVLERAKELAEELGNRLFLMQIEFLERHASSSS
B10: il10ra_site1_normal_mot_HHH_b2_03438_af2_000000049_0001_18_34_H_._HHH_b1_02262_0001_0000200021_0000002_0 (protein)
chain: SSSSDEEEQRVEELLRRAEELIEEGNPEEAYELLREAAELAHELEDPELSRRVLEVSRKLTSSSS
B11: il10ra_site1_normal_mot_HHH_b1_05088_af2_000000046_0001_20_36_H_._HHH_b2_08025_0001_0000200022_0000001_0 (protein)
chain: SSSSSDLEEEVEELLEEAREIEDPEERYKVLKEAIEVASERGDPELFRLIMKFLEELFRGSSSSS
B12: il10ra_site1_normal_mot_HHH_b2_06979_000000158_0001_42_57_H_._HHH_b2_00250_0001_0000300009_0000001_0 (protein)
chain: SSSSTEVQELYELARRLVEALAEGDEELVRELAEELEKLAEELNNELFLINARFILRDVESSSSS
B13: il10ra_site1_sap_19_mot_HHH_b1_06786_000000000_0001_1_20_H_._HHH_b1_00949_0001_0000500018_0000002_0_0001 (protein)
chain: SSSSDEEREEVEELLEEAEQIEDPEERIKVLFRAVHLANQAGDPEATRAVWEVFRRLIKNSSSSS
B14: il10ra_site1_normal_mot_HHH_b2_03220_af2_000000223_0001_23_40_H_._HHH_b2_00293_0001_0000200015_0000002_0 (protein)
chain: SSSSSEENEEAWEIIKEILEAAQRNDEERLEELLERLEELVRQSGSPIFEFSLRILERQLSSSSS
B15: il10ra_site1_sap_18_mot_HHH_b2_00943_af2_000000149_0001_1_17_H_._HHH_b2_04128_af2_0001_0000300012_0000002_0_0001 (protein)
chain: SSSSSSWRELAREAMFLAARKGDQQASVEVIRIYAAVEQGEAPEEWAEEALKELIEELKSSSSSS
B16: il10ra_site1_normal_mot_HHH_b2_00988_000000064_0001_1_19_H_._HHH_b1_01270_af2_0001_0000100003_0000001_0 (protein)
chain: SSSDLEERVEKIVKELKELLEEGDPDEFYKLLRELIELAHEYNDEEAEELAHELIREFIRKSSSS
B17: il10ra_site1_sap_18_mot_0c70b1737afd558c88fc2c362a6b1452_0001_1_af2_000000019_0001_15_31_H_._fe74bfd50694bb190af954a823403fd2_0001_0001_0001100013_0000001_0_000 … (protein)
chain: SSSSSDQLEEFEERIEELIRRGDLEEAEELLKELAEIVLQKRDEEAAEVYLRLWVEIARLSSSSS
B18: il10ra_site1_normal_mot_HHH_b1_02708_af2_000000019_0001_23_39_H_._HHH_b1_04932_0001_0000500050_0000001_0 (protein)
chain: SSSSSEEEERISELLQRIVRLVAEGDPERAQELLEEVRELIEEAGDDEFERYLEILERFLNSSSS
B19: il10ra_site1_normal_mot_HHH_b1_00929_000000068_0001_1_20_H_._HHH_b1_00134_0001_0000500065_0000001_0 (protein)
chain: SSSSDEELEETLRELREAAEEGDLELFWELARKALELARELGDEEALREIQRLVRLILENASSSS
B20: il10ra_site1_sap_20_mot_HHH_b2_04050_000000291_0001_1_20_H_._HHH_b2_01265_af2_0001_0000200010_0000002_0_0001_af2pred_0001 (protein)
chain: SSSSSEVEKAAARVLYLAARLGDDEAAIAVIRVFARLNSGETSEEEAEEILEELAERLRSSSSSS
B21: il10ra_site1_normal_mot_HHH_b2_00984_000000042_0001_1_20_H_._HHH_b2_06425_af2_0001_0000800033_0000001_0 (protein)
chain: SSSSDEELKEELEELIKEVKELLERGNTREASRLAQEILRLIYRLGDQELLQELWEIIKSGSSSS
B22: il10ra_site1_sap_18_mot_HHH_b1_01821_000000158_0001_23_39_H_._HHH_b1_02316_af2_0001_0000400011_0000001_0_0001 (protein)
chain: SSSSSDDTQRIYELIKRAIELMTEGNPEEAREVVEEAIELAEEAGSPILLKILEMILEELSSSSS
B23: il10ra_site1_normal_mot_HHH_b2_06199_000000213_0001_1_17_H_._HHH_b1_05925_0001_0000100007_0000002_0 (protein)
chain: SSSSDEERLRLSLRFARLLIEQGDPEAARRLLKAALDVARRNGDEELVEEIEELLEKLEGSSSSS
B24: il10ra_site1_sap_19_mot_HHH_b1_02815_af2_000000247_0001_3_20_H_._HHH_b2_06208_0001_0000100006_0000002_0_0001 (protein)
chain: SSSSSEEEKELEEFLERLRELVERGDPEEFAKLVIELLELIYRLSDEEALRELWRLLHEEASSSS
B25: il10ra_site1_sap_13_mot_HHH_b1_05357_000000034_0001_23_39_H_._HHH_b1_08654_0001_0000100008_0000002_1_0001_af2pred_0001 (protein)
chain: SSSSSAREEAERLFEEAEELIEQGDLRRVFELIRRIAELAAEFNDPEIEKLAQELLRLLLSSSSS
B26: il10ra_site1_normal_mot_HHH_b1_01879_000000050_0001_1_18_H_._HHH_b2_01804_0001_0000200011_0000001_0 (protein)
chain: SSSSDLEEEVEEAIERAEELLKRGNKKEALRLLFQIQIKAWRNNNEELVQLLAEVSIRISRSSSS
B27: il10ra_site1_normal_mot_8756ee2cf497b5429c717dfc0c0bcfd6_0001_000000186_0001_1_13_H_._HHH_b2_03977_0001_0000500031_0000002_0_af2pred_0001 (protein)
chain: SSSSSEVAEQVQRLIREALRLLNEGNPEEAEEVLREALELAREGNNEVLRVQVEYLLKLLTSSSS
B28: il10ra_site1_sap_16_mot_HHH_b1_00682_000000235_0001_1_20_H_._HHH_b2_04962_0001_0000500059_0000001_0_0001 (protein)
chain: SSSSSQEVYELLREALELLDQGNKEEAQEVVEEAERIAEELGNPLFEMQVRFIERDVKLRSSSSS
B29: il10ra_site1_sap_10_mot_HHH_b1_05704_af2_000000048_0001_1_18_H_._HHH_b2_04382_0001_0000100002_0000001_0_0001 (protein)
chain: SSSSSEEEEYVKLALRFVRWLLEAGDPEAARFYVEWALEKAKELGNEELEEEAEELLREARSSSS
B30: il10ra_site1_normal_mot_HHH_b2_04912_000000028_0001_1_20_H_._HHH_b1_06425_af2_0001_0000300010_0000001_1 (protein)
chain: SSSSDEELQRALELAREAFRLLLRGNPEEAQELLEEALELAEKLGSPLARTIRELLQALKSSSSS
B31: il10ra_site1_sap_22_mot_HHH_b2_04050_000000291_0001_1_20_H_._HHH_b1_05770_0001_0000100005_0000002_0_0001_af2pred_0001 (protein)
chain: SSSSSDEELRKEVEELLEEAKEIDDPEEAAEVLQRAARLAWELGDPELFHLVWRVAQENKSSSSS
B32: il10ra_site1_sap_23_mot_HHH_b1_03763_000000209_0001_22_38_H_._HHH_b2_01833_0001_0000100007_0000002_0_0001_af2pred_0001 (protein)
chain: SSSSDDEERLRLTLEAIEWAIKAGDEEAARLLIRAARQLAERDGNEEILKRLEELLEELNSSSSS
B33: il10ra_site1_sap_15_mot_HHH_b2_01310_000000089_0001_41_55_H_._HHH_b1_08154_af2_0001_0000300011_0000001_0_0001 (protein)
chain: SSSSSTQEVMKLIRRAMELAQEGNEEEAREVLEEARELAEEENNWALRWAIEHVEKVLNSSSSSS
B34: il10ra_site1_normal_mot_HHH_b2_08144_af2_000000046_0001_38_52_H_._HHH_b2_05514_af2_0001_0001100019_0000001_0_af2pred_dldesign_0_af2pred (protein)
chain: SSSSSSSPETERIVALIREAAELEDKEKARELLEEALELAEKNNNPILIDTARFLLRQVSSSSSS
B35: il10ra_site1_sap_25_mot_HHH_b1_04582_000000276_0001_1_18_H_._HHH_b1_00915_0001_0000200030_0000002_0_0001 (protein)
chain: SSSSDEQERAVERFARAMLEAVERDPRIREEAEKYVRMMHWFAKDPEVREVIEEILEELRSSSSS
B36: il10ra_site1_normal_mot_HHH_b1_03065_af2_000000286_0001_1_17_H_._HHH_b2_00454_0001_0000100004_0000001_0_af2pred_0001 (protein)
chain: SSSSSDEFFERVYELLRRVAELAEQGNPEEAERLLEEAKELAEEANNPYLKLAIEFVERRNSSSS
B37: il10ra_site1_normal_mot_HHH_b1_03900_000000129_0001_1_16_H_._HHH_b1_08130_0001_0000900038_0000002_0_af2pred_dldesign_0_af2pred (protein)
chain: SSSSDGVARARELYARILEALAAGDPVTAAALLKELADVAAETQDPEAQRLALEAARLLLESSSS

Each binder was assayed against il10ra, Q13651 (assay: yeast display titration).

Apparent Kd, inactive:
B1 no binding seen
B2 no binding seen
B3 no binding seen
B4 no binding seen
B5 no binding seen
B6 no binding seen
B7 no binding seen
B8 no binding seen
B9 no binding seen
B10 no binding seen
B11 no binding seen
B12 no binding seen
B13 no binding seen
B14 no binding seen
B15 no binding seen
B16 no binding seen
B17 no binding seen
B18 no binding seen
B19 no binding seen
B20 no binding seen
B21 no binding seen
B22 no binding seen
B23 no binding seen
B24 no binding seen
B25 no binding seen
B26 no binding seen
B27 no binding seen
B28 no binding seen
B29 no binding seen
B30 no binding seen
B31 no binding seen
B32 no binding seen
B33 no binding seen
B34 no binding seen
B35 no binding seen
B36 no binding seen
B37 no binding seen

2 records drawn at random from the list so far, as already listed:
Apparent Kd, inactive:
B2 no binding seen
B17 no binding seen

Reference: article PMC10163288
